The values below come from patent US10081665B2, “Peptides and combination of peptides for use in immunotherapy against various tumors” (immatics biotechnologies GmbH, priority 2015, dated 2018).

The subject of the data set is cancer tissues compared to normal tissues. In words: Identification and label-free relative LC-MS quantitation of HLA-presented tumor associated peptides (presentation profiles). Also on record: species or system human. Particulars: FIG. 1E-J; for cancer tissues where the peptide was found to be presented / normal tissues where the peptide was found to be presented: 7A-C, more than 320 normal tissue samples and 462 cancer samples analysed.

As to “SEQ ID NO.: 43: peptide found in CCR8 (gene looked up) (LLIPFTIFM; listed as Homo sapiens)”, the “cancer tissues where the peptide was found to be presented” value was 16 samples. As for “SEQ ID NO.: 67 (FLIENLLAA; listed as Homo sapiens)”, the “cancer tissues where the peptide was found to be presented” value was found to be 7 samples. Consider “SEQ ID NO.: 84 (FLLEREQLL; listed as Homo sapiens)”, for which the “cell lines where the peptide was found to be presented” value was 3 cell lines and the “cancer tissues where the peptide was found to be presented” value is recorded as 24 samples. As to “SEQ ID NO.: 152: peptide found in CXCR5 (gene looked up) (ILVTSIFFL; listed as Homo sapiens)”, the “cancer tissues where the peptide was found to be presented” value was determined as 16 samples and the “normal tissues where the peptide was found to be presented” value is recorded as 6 samples. With “SEQ ID NO.: 156: peptide found in CYSLTR1 (gene looked up) (VILTSSPFL; listed as Homo sapiens)”, the “cancer tissues where the peptide was found to be presented” value was found to be 11 samples and the “normal tissues where the peptide was found to be presented” value is 3 samples. With “SEQ ID NO.: 235: peptide found in CLSPN (gene looked up) (SLLNQPKAV; listed as Homo sapiens)”, the “cell lines where the peptide was found to be presented” value worked out at 13 cell lines and the “cancer tissues where the peptide was found to be presented” value is 30 samples. For “SEQ ID NO.: 243 (GLAEFQENV; listed as Homo sapiens)” the same measures were 3 cell lines and 67 samples.
